Experimental data published in patent publication US20180118829A1.
Residue numbers refer to the chain shown, from its start. These are yes or no findings as the source states them, for the method shown. Some results given as binding are weak or reduced against the parent protein; the word gives no strength.

Protein sequences, listed by entry. Tags and fused reporters are not part of them. Residues count along the entry.
UniProt Q15116, residues 25-167: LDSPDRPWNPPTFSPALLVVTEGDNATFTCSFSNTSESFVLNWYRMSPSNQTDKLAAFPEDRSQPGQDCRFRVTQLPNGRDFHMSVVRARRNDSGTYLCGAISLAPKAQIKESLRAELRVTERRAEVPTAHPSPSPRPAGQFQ
UniProt Q02242, residues 25-167: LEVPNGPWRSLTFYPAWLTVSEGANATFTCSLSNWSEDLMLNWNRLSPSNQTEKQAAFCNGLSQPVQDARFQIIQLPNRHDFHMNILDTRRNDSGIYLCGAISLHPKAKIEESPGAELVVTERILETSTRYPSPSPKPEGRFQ

B1: antibody 12228 (antibody, V domains shown)
VH: QVQLVQSGAEVKKPGASVKVSCKASGYTFTSYYMHWVRQAPGQGLEWMGIINPSGGSTSYAQKFQGRVTMTRDTSTSTVYMELSSLRSEDTAVYYCARGGTYYDYTYWGQGTLVTVSS
VL: DIQMTQSPSTLSASVGDRVTITCRASQSISSWLAWYQQKPGKAPKLLIYEASSLESGVPSRFSGSGSGTEFTLTISSLQPDDFATYYCQQYNSFPPTFGGGTKVEIK
B2: antibody 13408 (antibody, V domains shown)
VH: B1 VH with T30S, S31D, S57V, S59A
VL: B1 VL
B3: antibody 13409 (antibody, V domains shown)
VH: B1 VH with T30E, S57V, S59A
VL: B1 VL
B4: antibody 13406 (antibody, V domains shown)
VH: B1 VH with T30D, S31Q, S59A
VL: B1 VL
B5: antibody 13407 (antibody, V domains shown)
VH: B1 VH with T30P, S54E, S59A
VL: B1 VL

These binders were tested against Human PD-1-Fc fusion (human) (UniProt Q15116) (assay: BLI (Octet, ForteBio): hPD1 (human PD-1-Fc) on the sensor, hFc blocking, anti-PD-1 antibody step at 840-1140 s (10 µg/mL per paragraph 360), then buffer without ligand).

binding, binds:
B1
B2
B3
B4
B5

What follows are binders tested against Mouse PD-1-Fc fusion (mouse) (UniProt Q02242) (assay: BLI (Octet, ForteBio): mPD1 (mouse PD-1-Fc) on the sensor, hFc blocking, then anti-PD-1 antibody step at 840-1140 s (10 µg/mL per paragraph 359)).

binding, binds:
B1
B2
B3
B4
B5

These binders were tested against Human PD-1-Fc fusion (human) (UniProt Q15116) (assay: BLI (Octet, ForteBio): hPD1 (human PD-1-Fc) on the sensor, hFc blocking, then anti-PD-1 antibody step at 840-1140 s (10 µg/mL per paragraph 360)).

binding, binds:
B1
B2
B3
B4
B5
